Results reported in US20200377599A1, “COMPOSITIONS AND METHODS FOR TREATING CANCER” (BETH ISRAEL DEACONESS MEDICAL CENTER, INC., priority 2017, published 2020).
These are yes or no findings as the source states them, for the method shown. Binding seen in cells or lysates may run through a third protein. Some binding calls cover weakened binding; strength is not graded here. Each block holds one molecule with its values, some of them ahead of it.

Sequences of proteins named here, by UniProt entry; tags and fusion partners are left off. A change or cut given only in a name is not applied to a line headed by its entry. Residues count along the entry.
UniProt O43791: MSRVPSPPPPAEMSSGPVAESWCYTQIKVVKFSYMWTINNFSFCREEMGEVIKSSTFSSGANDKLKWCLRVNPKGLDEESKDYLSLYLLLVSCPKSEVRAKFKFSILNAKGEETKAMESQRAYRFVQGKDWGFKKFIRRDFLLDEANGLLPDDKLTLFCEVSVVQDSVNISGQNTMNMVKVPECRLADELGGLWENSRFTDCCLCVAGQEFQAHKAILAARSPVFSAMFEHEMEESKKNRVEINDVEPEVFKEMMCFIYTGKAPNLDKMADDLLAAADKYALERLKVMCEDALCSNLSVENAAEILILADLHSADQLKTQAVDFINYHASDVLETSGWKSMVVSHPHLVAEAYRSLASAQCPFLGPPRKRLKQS
UniProt Q9NZQ7, residues 19-290: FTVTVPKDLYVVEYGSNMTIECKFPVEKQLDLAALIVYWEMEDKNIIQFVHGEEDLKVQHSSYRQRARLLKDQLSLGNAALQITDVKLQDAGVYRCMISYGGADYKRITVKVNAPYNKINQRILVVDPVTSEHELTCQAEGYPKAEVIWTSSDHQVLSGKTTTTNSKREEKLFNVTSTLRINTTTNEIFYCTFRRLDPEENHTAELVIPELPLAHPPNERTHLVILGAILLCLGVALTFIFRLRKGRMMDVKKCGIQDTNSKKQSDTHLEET
UniProt Q12834: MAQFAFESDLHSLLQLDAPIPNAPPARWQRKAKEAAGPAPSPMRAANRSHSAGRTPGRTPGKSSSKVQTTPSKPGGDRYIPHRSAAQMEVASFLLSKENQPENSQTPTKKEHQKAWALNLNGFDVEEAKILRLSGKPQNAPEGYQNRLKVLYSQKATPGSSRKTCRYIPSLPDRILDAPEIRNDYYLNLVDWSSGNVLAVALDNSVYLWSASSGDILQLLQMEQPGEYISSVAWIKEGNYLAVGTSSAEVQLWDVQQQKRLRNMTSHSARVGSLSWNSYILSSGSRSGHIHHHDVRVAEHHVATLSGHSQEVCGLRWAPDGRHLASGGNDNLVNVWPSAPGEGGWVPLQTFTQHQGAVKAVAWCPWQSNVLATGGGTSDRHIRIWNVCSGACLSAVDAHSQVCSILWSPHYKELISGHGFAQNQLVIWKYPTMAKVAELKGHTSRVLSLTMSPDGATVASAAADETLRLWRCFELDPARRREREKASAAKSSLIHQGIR
UniProt Q9UM11: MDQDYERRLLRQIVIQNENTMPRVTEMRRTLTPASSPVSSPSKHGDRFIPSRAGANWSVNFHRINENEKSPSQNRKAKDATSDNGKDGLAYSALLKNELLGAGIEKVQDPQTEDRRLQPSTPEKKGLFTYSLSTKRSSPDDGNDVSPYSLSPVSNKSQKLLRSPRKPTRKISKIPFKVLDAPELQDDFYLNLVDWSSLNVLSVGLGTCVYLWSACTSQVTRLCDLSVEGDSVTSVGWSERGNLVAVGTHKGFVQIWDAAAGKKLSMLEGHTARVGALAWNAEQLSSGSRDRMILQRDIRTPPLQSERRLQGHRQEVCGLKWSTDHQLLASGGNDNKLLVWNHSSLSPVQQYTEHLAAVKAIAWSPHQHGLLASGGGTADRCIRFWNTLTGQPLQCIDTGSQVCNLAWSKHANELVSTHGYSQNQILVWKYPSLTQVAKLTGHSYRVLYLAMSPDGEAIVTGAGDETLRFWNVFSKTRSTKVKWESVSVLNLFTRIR
UniProt Q9Y297: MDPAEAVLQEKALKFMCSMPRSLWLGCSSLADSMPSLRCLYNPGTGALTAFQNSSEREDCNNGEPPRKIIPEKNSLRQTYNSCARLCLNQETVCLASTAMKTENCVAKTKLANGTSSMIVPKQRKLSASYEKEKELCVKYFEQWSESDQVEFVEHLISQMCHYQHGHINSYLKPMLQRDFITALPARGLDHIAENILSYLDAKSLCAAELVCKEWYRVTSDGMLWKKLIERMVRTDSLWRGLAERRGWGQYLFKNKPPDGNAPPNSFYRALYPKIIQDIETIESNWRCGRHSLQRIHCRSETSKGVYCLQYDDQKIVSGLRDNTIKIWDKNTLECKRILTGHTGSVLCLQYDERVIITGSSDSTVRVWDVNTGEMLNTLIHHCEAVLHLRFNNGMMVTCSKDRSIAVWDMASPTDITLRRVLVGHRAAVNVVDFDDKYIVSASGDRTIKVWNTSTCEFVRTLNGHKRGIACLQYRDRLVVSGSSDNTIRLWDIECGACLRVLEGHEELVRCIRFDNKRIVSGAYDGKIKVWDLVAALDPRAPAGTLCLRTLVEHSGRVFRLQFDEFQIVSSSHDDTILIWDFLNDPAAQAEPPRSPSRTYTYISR

Tests used:
[1] = molecular target: SPOP (UniProt O43791); assay: co-immunoprecipitation from transfected 293T cells (FIG. 12B)
[2] = molecular target: SPOP (UniProt O43791); assay: co-immunoprecipitation of endogenous proteins, MDA-MB-231 (FIG. 4B) and HeLa cells (FIG. 12E)
[3] = molecular target: SPOP (UniProt O43791); assay: co-immunoprecipitation from 293T cells with or without palbociclib (FIG. 4I)
[4] = molecular target: SPOP (UniProt O43791); assay: co-immunoprecipitation (FIG. 4)
[5] = molecular target: T1, SPOP-S6A mutant (UniProt O43791 1-374); assay: co-immunoprecipitation from transfected 293T cells (FIG. 13K)
T1 construct: also called Flag-SPOP S6A; phosphorylation-deficient S6A mutant of SPOP

[6] = molecular target: T2, PD-L1 (human, UniProt Q9NZQ7 19-290, limits assumed); assay: GST pull-down and co-immunoprecipitation (FIG. 8)
T2 construct: also called HA-PD-L1; PD-L1 WT

[7] = molecular target: T2, PD-L1; assay: co-immunoprecipitation from transfected 293T cells (FIG. 8G)
[8] = molecular target: T2, PD-L1; assay: co-immunoprecipitation, transfected 293T cells (FIG. 3D) and PC3 cells (FIG. 3E)
[9] = molecular target: T2, PD-L1; assay: co-immunoprecipitation in cells
[10] = molecular target: T1, SPOP-S6A mutant; assay: co-immunoprecipitation from transfected 293T cells (FIG. 13J)
[11] = molecular target: T2, PD-L1; assay: co-immunoprecipitation from transfected 293T cells (FIG. 8F)
[12] = substrate: SPOP (UniProt O43791); assay: co-immunoprecipitation from 293T cells with or without palbociclib (FIG. 4I); remark: listed apart in the source
[13] = substrate: SPOP (UniProt O43791); assay: GST pull-down from transfected 293T cells (FIG. 13G)
[14] = substrate: SPOP (UniProt O43791); assay: co-immunoprecipitation and pull-down (FIG. 13)
[15] = substrate: SPOP (UniProt O43791); assay: co-immunoprecipitation (FIG. 4); remark: listed apart in the source
[16] = substrate: SPOP (UniProt O43791); assay: co-immunoprecipitation from transfected 293T cells (FIG. 4G)

Molecule: Cdc20 (from UniProt Q12834 1-499)
- binding [1]: binds

Molecule: Cdh1 (from UniProt Q9UM11 1-496)
- binding [1]: binds
- binding [2]: binds
- binding [3]: binds
- binding [4]: binds
- binding [5]: binds

Molecule: SPOP (from UniProt O43791 1-374)
- binding [6]: binds
- binding [7]: binds
- binding [8]: binds
- binding [9]: binds

Results, then the molecule that gave them:

- binding [10]: binds
Molecule: SPOP-S6A mutant (from UniProt O43791 1-374)

- binding [11]: binds
Molecule: β-TRCP (from UniProt Q9Y297 1-605)

- binding [12]: binds
- binding [13]: binds
- binding [14]: binds
- binding [15]: binds
- binding [16]: binds
B1: 14-3-3γ (other, UniProt P61981 1-247, looked up)
chain: MVDREQLVQKARLAEQAERYDDMAAAMKNVTELNEPLSNEERNLLSVAYKNVVGARRSSWRVISSIEQKTSADGNEKKIEMVRAYREKIEKELEAVCQDVLSLLDNYLIKNCSETQYESKVFYLKMKGDYYRYLAEVATGEKRATVVESSEKAYSEAHEISKEHMQPTHPIRLGLALNYSVFYYEIQNAPEQACHLAKTAFDDAIAELDTLNEDSYKDSTLIMQLLRDNLTLWTSDQQDDDGGEGNN
notes: One of the HA-14-3-3 isoform constructs; also called HA-14-3-3γ
